# From the supplement of paper PMC8728848
# The other results are listed elsewhere or left out.
# Key:
# Experiment in all cases: glycan array binding signal (z-score within array); higher = stronger binding
# Conditions in all cases: glycan notation: IUPAC condensed, linker removed
# [1] = biological target: Neu5Ac(a2-3)Gal(b1-4)[Fuc(a1-3)]GlcNAc(b1-3)Gal(b1-4)[Fuc(a1-3)]GlcNAc(b1-3)Gal(b1-4)[Fuc(a1-3)]GlcNAc
# In short: (§1)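 Negative Z-scores can be read as non-binding. The Z-score is calculated within each array and then averaged across arrays of one protein sequence at different concentrations or buffers and across linkers. Arrays, 3228 in all, were curated from the Consortium for Functional Glycomics database and kept only where the protein sequence was available.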
# [2] = biological target: Neu5Ac(a2-3)Gal(b1-4)[Fuc(a1-3)]GlcNAc(b1-6)[Gal(b1-3)]GalNAc
# In short: as §1
# [3] = biological target: Neu5Ac(a2-3)Gal(b1-4)[Fuc(a1-3)]GlcNAc(b1-6)[Neu5Ac(a2-3)Gal(b1-3)]GalNAc
# In short: as §1
# [4] = biological target: Neu5Ac(a2-3)Gal(b1-4)[Fuc(a1-3)]GlcNAc6S
# In short: as §1
# [5] = biological target: Neu5Ac(a2-3)Gal6S(b1-4)GlcNAc
# In short: as §1
# [6] = biological target: Neu5Ac(a2-3)Gal6S(b1-4)[Fuc(a1-3)]GlcNAc
# In short: as §1
# Neu5Ac(a2-3)GalNAc = biological target: Neu5Ac(a2-3)GalNAc
# In short: as §1
# [7] = biological target: Neu5Ac(a2-3)GalNAc(b1-4)GlcNAc
# In short: as §1
# [8] = biological target: Neu5Ac(a2-3)[GalNAc(b1-4)]Gal(b1-4)Glc
# In short: as §1
# [9] = biological target: Neu5Ac(a2-3)[GalNAc(b1-4)]Gal(b1-4)GlcNAc
# In short: as §1
# [10] = biological target: Neu5Ac(a2-3)[Neu5Ac(a2-6)]GalNAc
# In short: as §1
# Neu5Ac(a2-6)Gal = biological target: Neu5Ac(a2-6)Gal
# In short: as §1
# Neu5Ac(a2-6)Gal(b1-4)Glc = biological target: Neu5Ac(a2-6)Gal(b1-4)Glc
# In short: as §1
# [11] = biological target: Neu5Ac(a2-6)Gal(b1-4)GlcNAc
# In short: as §1
# [12] = biological target: Neu5Ac(a2-6)Gal(b1-4)GlcNAc(b1-2)Man(a1-3)Man(b1-4)GlcNAc(b1-4)GlcNAc
# In short: as §1
# [13] = biological target: Neu5Ac(a2-6)Gal(b1-4)GlcNAc(b1-2)Man(a1-3)[Gal(b1-4)GlcNAc(b1-2)Man(a1-6)]Man(b1-4)GlcNAc(b1-4)GlcNAc
# In short: as §1
# [14] = biological target: Neu5Ac(a2-6)Gal(b1-4)GlcNAc(b1-2)Man(a1-3)[GlcNAc(b1-2)Man(a1-6)]Man(b1-4)GlcNAc(b1-4)GlcNAc
# In short: as §1
# [15] = biological target: Neu5Ac(a2-6)Gal(b1-4)GlcNAc(b1-2)Man(a1-3)[GlcNAc(b1-2)Man(b1-4)GlcNAc(b1-2)Man(a1-6)]Man(b1-4)GlcNAc(b1-4)GlcNAc
# In short: as §1
# [16] = biological target: Neu5Ac(a2-6)Gal(b1-4)GlcNAc(b1-2)Man(a1-3)[Man(a1-6)]Man(b1-4)GlcNAc(b1-4)GlcNAc
# In short: as §1
# [17] = biological target: Neu5Ac(a2-6)Gal(b1-4)GlcNAc(b1-2)Man(a1-3)[Neu5Ac(a2-6)Gal(b1-4)GlcNAc(b1-2)Man(a1-6)]Man(b1-4)GlcNAc(b1-4)GlcNAc
# In short: as §1
# [18] = biological target: Neu5Ac(a2-6)Gal(b1-4)GlcNAc(b1-2)Man(a1-6)Man(b1-4)GlcNAc(b1-4)GlcNAc
# In short: as §1
# [19] = biological target: Neu5Ac(a2-6)Gal(b1-4)GlcNAc(b1-2)Man(a1-6)[Gal(b1-4)GlcNAc(b1-2)Man(a1-3)]Man(b1-4)GlcNAc(b1-4)GlcNAc
# In short: as §1
# [20] = biological target: Neu5Ac(a2-6)Gal(b1-4)GlcNAc(b1-2)Man(a1-6)[GlcNAc(b1-2)Man(a1-3)]Man(b1-4)GlcNAc(b1-4)GlcNAc
# In short: as §1
# [21] = biological target: Neu5Ac(a2-6)Gal(b1-4)GlcNAc(b1-2)Man(a1-6)[Man(a1-3)]Man(b1-4)GlcNAc(b1-4)GlcNAc
# In short: as §1
# [22] = biological target: Neu5Ac(a2-6)Gal(b1-4)GlcNAc(b1-3)Gal(b1-3)GlcNAc
# In short: as §1
# [23] = biological target: Neu5Ac(a2-6)Gal(b1-4)GlcNAc(b1-3)Gal(b1-4)GlcNAc
# In short: as §1
# [24] = biological target: Neu5Ac(a2-6)Gal(b1-4)GlcNAc(b1-3)Gal(b1-4)GlcNAc(b1-3)Gal(b1-4)GlcNAc
# In short: as §1
# [25] = biological target: Neu5Ac(a2-6)Gal(b1-4)GlcNAc(b1-3)Gal(b1-4)[Fuc(a1-3)]GlcNAc(b1-3)Gal(b1-4)[Fuc(a1-3)]GlcNAc
# In short: as §1
# [26] = biological target: Neu5Ac(a2-6)Gal(b1-4)GlcNAc(b1-3)GalNAc
# In short: as §1
# [27] = biological target: Neu5Ac(a2-6)Gal(b1-4)GlcNAc6S
# In short: as §1
# Neu5Ac(a2-6)GalNAc = biological target: Neu5Ac(a2-6)GalNAc
# In short: as §1
# [28] = biological target: Neu5Ac(a2-6)GalNAc(b1-4)GlcNAc
# In short: as §1
# [29] = biological target: Neu5Ac(a2-6)GlcNAc(b1-4)GlcNAc
# In short: as §1
# [30] = biological target: Neu5Ac(a2-6)GlcNAc(b1-4)GlcNAc(b1-4)GlcNAc
# In short: as §1
# Neu5Ac(a2-8)Neu5Ac = biological target: Neu5Ac(a2-8)Neu5Ac
# In short: as §1
# [31] = biological target: Neu5Ac(a2-8)Neu5Ac(a2-3)Gal(b1-4)Glc
# In short: as §1
# [32] = biological target: Neu5Ac(a2-8)Neu5Ac(a2-3)[GalNAc(b1-4)]Gal(b1-4)Glc
# In short: as §1
# [33] = biological target: Neu5Ac(a2-8)Neu5Ac(a2-8)Neu5Ac
# In short: as §1
# [34] = biological target: Neu5Ac(a2-8)Neu5Ac(a2-8)Neu5Ac(a2-3)Gal(b1-4)Glc
# In short: as §1
# [35] = biological target: Neu5Ac(a2-8)Neu5Ac(a2-8)Neu5Ac(a2-3)[GalNAc(b1-4)]Gal(b1-4)Glc
# In short: as §1
# [36] = biological target: Neu5Ac(a2-8)Neu5Ac(a2-8)Neu5Ac(a2-8)Neu5Ac(a2-3)[GalNAc(b1-4)]Gal(b1-4)Glc
# In short: as §1
# [37] = biological target: Neu5Ac(b2-6)Gal(b1-4)GlcNAc
# In short: as §1
# Neu5Ac(b2-6)GalNAc = biological target: Neu5Ac(b2-6)GalNAc
# In short: as §1
# [38] = biological target: Neu5Ac9Ac(a2-3)Gal(b1-3)GlcNAc
# In short: as §1
# [39] = biological target: Neu5Ac9Ac(a2-3)Gal(b1-4)GlcNAc
# In short: as §1
# [40] = biological target: Neu5Ac9Ac(a2-6)Gal(b1-4)GlcNAc
# In short: as §1
# [41] = biological target: Neu5Gc(a2-3)Gal(b1-3)GlcNAc
# In short: as §1
# [42] = biological target: Neu5Gc(a2-3)Gal(b1-3)[Fuc(a1-4)]GlcNAc
# In short: as §1
# Neu5Gc(a2-3)Gal(b1-4)Glc = biological target: Neu5Gc(a2-3)Gal(b1-4)Glc
# In short: as §1
# [43] = biological target: Neu5Gc(a2-3)Gal(b1-4)GlcNAc
# In short: as §1
# [44] = biological target: Neu5Gc(a2-3)Gal(b1-4)[Fuc(a1-3)]GlcNAc
# In short: as §1
# [45] = biological target: Neu5Gc(a2-6)Gal(b1-4)GlcNAc
# In short: as §1
# Neu5Gc(a2-6)GalNAc = biological target: Neu5Gc(a2-6)GalNAc
# In short: as §1
# [46] = biological target: Neu5Gc(b2-6)Gal(b1-4)GlcNAc
# In short: as §1
binder,measurement,setting,value
"HHL-2 (Homo sapiens), P07307 (protein) MAKDFQDIQQLSSEENDHPFHQGEGPGTRRLNPRRGNPFLKGPPPAQPLAQRLCSMVCFSLLALSFNILLLVVICVTGSQSEGHRGAQLQAELRSLKEAFSNFSSSTLTEVQAISTHGGSVGDKITSLGAKLEKQQQDLKADHDALLFHLKHFPVDLRFVACQMELLHSNGSQRTCCPVNWVEHQGSCYWFSHSGKAWAEAEKYCQLENAHLVVINSWEEQKFIVQHTNPFNTWIGLTDSDGSWKWVDGTDYRHNYKNWAVTQPDNWHGHELGGSEDCVEVQPDGRWNDDFCLQVYRWVCEKRRNATGEVA",glycan array binding signal (z-score),[1],-0.56
same,glycan array binding signal (z-score),[2],-0.925
same,glycan array binding signal (z-score),[3],-0.303
same,glycan array binding signal (z-score),[4],0.012
same,glycan array binding signal (z-score),[5],-0.403
same,glycan array binding signal (z-score),[6],-0.612
same,glycan array binding signal (z-score),Neu5Ac(a2-3)GalNAc,-0.823
same,glycan array binding signal (z-score),[7],-0.145
same,glycan array binding signal (z-score),[8],0.461
same,glycan array binding signal (z-score),[9],0.969
same,glycan array binding signal (z-score),[10],-0.847
same,glycan array binding signal (z-score),Neu5Ac(a2-6)Gal,0.123
same,glycan array binding signal (z-score),Neu5Ac(a2-6)Gal(b1-4)Glc,-0.271
same,glycan array binding signal (z-score),[11],0.623
same,glycan array binding signal (z-score),[12],0.098
same,glycan array binding signal (z-score),[13],0.34
same,glycan array binding signal (z-score),[14],-0.424
same,glycan array binding signal (z-score),[15],0.261
same,glycan array binding signal (z-score),[16],0.323
same,glycan array binding signal (z-score),[17],2.4
same,glycan array binding signal (z-score),[18],-0.311
same,glycan array binding signal (z-score),[19],-0.429
same,glycan array binding signal (z-score),[20],-0.868
same,glycan array binding signal (z-score),[21],-0.826
same,glycan array binding signal (z-score),[22],-0.096
same,glycan array binding signal (z-score),[23],-0.539
same,glycan array binding signal (z-score),[24],-0.717
same,glycan array binding signal (z-score),[25],0.462
same,glycan array binding signal (z-score),[26],1.42
same,glycan array binding signal (z-score),[27],2.18
same,glycan array binding signal (z-score),Neu5Ac(a2-6)GalNAc,-0.605
same,glycan array binding signal (z-score),[28],-0.568
same,glycan array binding signal (z-score),[29],-1.01
same,glycan array binding signal (z-score),[30],-0.816
same,glycan array binding signal (z-score),Neu5Ac(a2-8)Neu5Ac,-0.55
same,glycan array binding signal (z-score),[31],-0.127
same,glycan array binding signal (z-score),[32],0.053
same,glycan array binding signal (z-score),[33],0.786
same,glycan array binding signal (z-score),[34],3.59
same,glycan array binding signal (z-score),[35],0.412
same,glycan array binding signal (z-score),[36],0.721
same,glycan array binding signal (z-score),[37],0.174
same,glycan array binding signal (z-score),Neu5Ac(b2-6)GalNAc,-0.379
same,glycan array binding signal (z-score),[38],-0.492
same,glycan array binding signal (z-score),[39],0.165
same,glycan array binding signal (z-score),[40],-0.403
same,glycan array binding signal (z-score),[41],0.506
same,glycan array binding signal (z-score),[42],0.838
same,glycan array binding signal (z-score),Neu5Gc(a2-3)Gal(b1-4)Glc,1.22
same,glycan array binding signal (z-score),[43],-0.694
same,glycan array binding signal (z-score),[44],0.113
same,glycan array binding signal (z-score),[45],0.3
same,glycan array binding signal (z-score),Neu5Gc(a2-6)GalNAc,-0.354
same,glycan array binding signal (z-score),[46],-0.431

# In a second layout: results already given.
binder	measurement	setting	value
HHL-2 (Homo sapiens), P07307 (protein) MAKDFQDIQQLSSEENDHPFHQGEGPGTRRLNPRRGNPFLKGPPPAQPLAQRLCSMVCFSLLALSFNILLLVVICVTGSQSEGHRGAQLQAELRSLKEAFSNFSSSTLTEVQAISTHGGSVGDKITSLGAKLEKQQQDLKADHDALLFHLKHFPVDLRFVACQMELLHSNGSQRTCCPVNWVEHQGSCYWFSHSGKAWAEAEKYCQLENAHLVVINSWEEQKFIVQHTNPFNTWIGLTDSDGSWKWVDGTDYRHNYKNWAVTQPDNWHGHELGGSEDCVEVQPDGRWNDDFCLQVYRWVCEKRRNATGEVA	glycan array binding signal (z-score)	[16]	0.323
same	glycan array binding signal (z-score)	[17]	2.4
same	glycan array binding signal (z-score)	[18]	-0.311
same	glycan array binding signal (z-score)	[19]	-0.429
same	glycan array binding signal (z-score)	[20]	-0.868
